In paper PMC6019494:
These are yes or no findings as the source states them, for the method shown. For some assays here: In cells and extracts the contact can be indirect. Some binding calls cover weakened binding; strength is not graded here. For some assays here: Where a sequence is shown, tags or fusion partners need not be part of it. Values belong to the binder of their own block, whether it stands above or below them.

Key:
[1] = biological target: T1, CRABS CLAW (CRC), full length, yeast two-hybrid fusion (Arabidopsis thaliana) (UniProt Q8L925); experiment: two-hybrid; GAL4 AD (pGADT7) and BD (pGBKT7) fusions in S. cerevisiae AH109; growth on SD-Leu/-Trp/-His + 3 mM 3-AT and MEL1 based α-galactosidase assay, in triplicates
T1 sequence: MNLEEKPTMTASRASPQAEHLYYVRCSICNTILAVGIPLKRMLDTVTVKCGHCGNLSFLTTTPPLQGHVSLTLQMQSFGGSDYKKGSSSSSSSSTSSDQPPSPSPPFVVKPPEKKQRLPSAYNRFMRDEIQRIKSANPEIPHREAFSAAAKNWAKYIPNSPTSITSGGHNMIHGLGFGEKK

[2] = biological target: CRC Zinc Finger (CRC-ZF), single zinc finger domain, for BiFC (Arabidopsis thaliana) (UniProt Q8L925); experiment: split reporter; BiFC with YFPC- and YFPN-tagged CRC variants, transiently co-expressed in leaves of 4 weeks old N. benthamiana plants (A. tumefaciens GV3101); leaf disks with DAPI 2 days after infiltration, fluorescence microscopy
[3] = biological target: CRC YABBY (CRC-YD), single YABBY domain, YFPC- and YFPN-tagged for BiFC (Arabidopsis thaliana) (UniProt Q8L925); experiment: as above
[4] = biological target: CRC Intermediate (CRC-IM), single intermediate domain, for BiFC (Arabidopsis thaliana) (UniProt Q8L925); experiment: as above
[5] = biological target: T2, YABBY 3 (YAB3), yeast two-hybrid fusion (Arabidopsis thaliana) (UniProt Q9XFB1); experiment: two-hybrid; GAL4 AD (pGADT7) and BD (pGBKT7) fusions in S. cerevisiae AH109; growth on SD-Leu/-Trp/-His + 3 mM 3-AT and MEL1 based α-galactosidase assay, in triplicates
T2 sequence: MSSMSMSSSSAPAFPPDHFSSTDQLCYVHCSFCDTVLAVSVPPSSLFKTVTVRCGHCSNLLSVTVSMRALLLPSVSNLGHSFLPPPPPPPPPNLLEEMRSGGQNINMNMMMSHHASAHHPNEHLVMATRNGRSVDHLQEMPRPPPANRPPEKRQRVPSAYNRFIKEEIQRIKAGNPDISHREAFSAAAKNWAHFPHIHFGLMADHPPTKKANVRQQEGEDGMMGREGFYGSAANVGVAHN

[6] = biological target: T3, YABBY 5 (YAB5), yeast two-hybrid fusion (Arabidopsis thaliana) (UniProt Q8GW46); experiment: as above
T3 sequence: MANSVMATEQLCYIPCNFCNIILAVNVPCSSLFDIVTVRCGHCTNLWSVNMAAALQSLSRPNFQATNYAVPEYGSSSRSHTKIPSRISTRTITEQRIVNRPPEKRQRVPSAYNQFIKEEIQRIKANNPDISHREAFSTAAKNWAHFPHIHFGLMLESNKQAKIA

[7] = biological target: T4, FILAMENTOUS FLOWER (FIL), yeast two-hybrid fusion (Arabidopsis thaliana) (UniProt O22152); experiment: as above
T4 sequence: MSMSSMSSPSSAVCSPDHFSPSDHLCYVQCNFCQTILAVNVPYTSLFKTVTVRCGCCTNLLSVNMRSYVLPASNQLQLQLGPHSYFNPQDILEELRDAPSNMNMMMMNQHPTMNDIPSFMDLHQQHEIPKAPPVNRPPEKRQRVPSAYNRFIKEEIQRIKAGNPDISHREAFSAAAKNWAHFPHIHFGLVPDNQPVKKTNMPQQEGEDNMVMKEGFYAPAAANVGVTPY

[8] = biological target: T5, YABBY 2 (YAB2), yeast two-hybrid fusion (Arabidopsis thaliana) (UniProt Q9XFB0); experiment: as above
T5 sequence: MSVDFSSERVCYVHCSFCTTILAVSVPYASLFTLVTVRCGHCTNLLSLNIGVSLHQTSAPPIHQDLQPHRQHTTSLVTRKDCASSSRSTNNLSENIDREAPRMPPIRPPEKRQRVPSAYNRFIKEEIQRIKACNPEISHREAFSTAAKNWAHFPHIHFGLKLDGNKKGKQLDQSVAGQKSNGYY

binding [1]: no binding
B1: YABBY 2 (YAB2), yeast two-hybrid fusion (protein, UniProt Q9XFB0 1-184)
chain: T5 sequence

binding [1]: no binding
B2: YABBY 3 (YAB3), yeast two-hybrid fusion (protein, UniProt Q9XFB1 1-240)
chain: T2 sequence

binding [1]: no binding
B5: YABBY 5 (YAB5), yeast two-hybrid fusion (protein, UniProt Q8GW46 1-164)
chain: T3 sequence

The remaining lines, values behind:

Binder: CSICNTILAVGIPLKRMLDTVTVKCGHC (domain or fragment, UniProt Q8L925 26-53) [CRC Zinc Finger (CRC-ZF), single zinc finger domain, for BiFC]
binding [2]: no binding

Binder: VKPPEKKQRLPSAYNRFMRDEIQRIKSANPEIPHREAFSAAAKNWAK (domain or fragment, UniProt Q8L925 109-155) [CRC YABBY (CRC-YD), single YABBY domain, YFPC- and YFPN-tagged for BiFC]
binding [3]: binds

B3: CRC Intermediate (CRC-IM), single intermediate domain, for BiFC (domain or fragment, UniProt Q8L925 54-108)
chain: GNLSFLTTTPPLQGHVSLTLQMQSFGGSDYKKGSSSSSSSSTSSDQPPSPSPPFV
binding [4]: no binding

B4: FILAMENTOUS FLOWER (FIL), yeast two-hybrid fusion (protein, UniProt O22152 1-229)
chain: T4 sequence
binding [1]: no binding

B6: CRABS CLAW (CRC), full length, yeast two-hybrid fusion (protein, UniProt Q8L925 1-181)
chain: T1 sequence
binding [5]: no binding
binding [6]: no binding
binding [7]: no binding
binding [8]: no binding
